Source: patent US20210113586A1, “NEW USE AND METHODS OF MODULATING IMMUNE RESPONSES” (DIAMYD MEDICAL AB, priority 2018, published 2021)

Assay: Plasma GABA concentration by ELISA
Set-up: species or system human
Conditions: mean±SEM

For `NCCCC(=O)O` [GABA, gamma-aminobutyric acid], the “plasma GABA concentration (endogenous)” value (ND individuals) was 501 ± 32 nM and the “plasma GABA concentration (endogenous)” value (T1D subjects) was 649 ± 42 nM.
